Results are given in words; binding and its absence hold for the method and conditions named.
Target: C69A apoflavodoxin (Azotobacter vinelandii) (UniProt P00324)
Assay: SEC; Superdex 75 HR 10/30, 0.5 mL/min, 25°C; apoprotein (38 μM wild type, 79 μM C69A) fresh and after 22-24 h with 10 mM H2O2 at 4°C; DTT removed before; both purified

Protein sequences, listed by entry. Tags and fused reporters are not part of them. Lines headed by an entry give the natural chain unless they say otherwise; changes in a name come on top.
UniProt P00324: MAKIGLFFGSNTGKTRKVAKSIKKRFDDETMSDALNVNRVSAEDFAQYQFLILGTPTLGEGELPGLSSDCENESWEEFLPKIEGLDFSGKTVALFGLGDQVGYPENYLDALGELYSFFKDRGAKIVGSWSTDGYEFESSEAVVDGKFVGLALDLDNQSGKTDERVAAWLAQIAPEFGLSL

- binding: no binding (tested: 79 μM)
Substance: C69A apoflavodoxin (from UniProt P00324 1-180)
